Assay results from PubChem BioAssay AID270 (DTP/NCI, 2004).
The list does not hold the whole screen: it is rich in T/C values a quarter to a half above the control, in often repeated tests (any T/C) and in doses without a T/C. Further doses and runs are listed elsewhere. T/C is the treated group as % of the vehicle group. Schedules are NCI's codes, taken here to give the interval after Q, in days (D) or hours (H), and the number of doses after X. Some entries give survivors of the animals treated and no T/C: the source files T/C as zero there, which appears to mark a toxic dose or a test without result, not a measured value. Some doses without a T/C left all or most animals alive at the check, yet need not have been tolerated: survival well below the control is almost never listed, so the zero probably covers shortened survival too. Counts of survivors are from the toxicity check (mostly the fifth day) where no day follows; animals may have died later. Some entries were tested several times; the values are given in rising order. Where survival is the endpoint, this PubChem deposit counts one and a half times the control or more as active, and values a quarter to a half above the control carry no call in these data; other NCI protocols may use other cut-offs. Some T/C values carry the count of animals alive at the toxicity check (mostly the fifth day); without a count, all were alive then.

System: BDF1 mice, s.c. Lewis lung carcinoma, T/C %
Assay: NCI In Vivo Anticancer Drug Screen. Data for tumor model Lewis Lung Carcinoma (subcutaneous) in B6D2F1 (BDF1) mice
Summary of the method: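 Readout: survival or tumor size, expressed as treated (T) over vehicle control (C). Transplantable tumor implanted in mice; compound given to the treated group.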

[1] = T/C endpoint: median survival time, dose: 100.0 mg/kg/injection, schedule: Q01DX009 (ip), vehicle: Klucel (hydroxypropylcellulose) (HPC), higher T/C = longer survival
[2] = T/C endpoint: median survival time, dose: 12.5 mg/kg/injection, schedule: Q01DX009 (ip), vehicle: saline, higher T/C = longer survival

## C[C@]12C=CC(=O)C=C1CC[C@@H]1[C@@H]2[C@@H](O)C[C@@]2(C)[C@H]1CC[C@]2(O)C(=O)CO
T/C endpoint: mean tumor weight, dose: 100.0 mg/kg/injection, schedule: Q01DX011 (sc), vehicle: steroid suspending solution, higher T/C = larger tumour
  survivor count: 3 of 6
T/C endpoint: mean tumor weight, dose: 200.0 mg/kg/injection, schedule: Q01DX011 (sc), vehicle: steroid suspending solution, higher T/C = larger tumour
  survivor count: 3 of 6
T/C endpoint: mean tumor weight, dose: 400.0 mg/kg/injection, schedule: Q01DX011 (sc), vehicle: steroid suspending solution, higher T/C = larger tumour
  survivor count: 2 of 6
T/C endpoint: median survival time, dose: 160.0 mg/kg/injection, schedule: Q02DX009 (ip), vehicle: Klucel (hydroxypropylcellulose) (HPC), higher T/C = longer survival
  survivor count: 10 of 10
T/C endpoint: median survival time, dose: 640.0 mg/kg/injection, schedule: Q02DX009 (ip), vehicle: Klucel (hydroxypropylcellulose) (HPC), higher T/C = longer survival
  survivor count: 9 of 10

## CCC1/C=C/C=C/CC(C)C(O)C(C)(O)C(=O)C(C)C(O)C(C)C(=O)C(C)C(O)C(C)/C=C/C(=O)OC2C(C)C(CC1)OC1(OC(CC(C)O)C(C)CC1=O)C2C (stereo unspecified) (tested in a mixture with another compound)
T/C endpoint: mean tumor weight, dose: 1.0 mg/kg/injection, schedule: Q01DX011 (ip), vehicle: saline, evaluated on day 12, higher T/C = larger tumour
  T/C: 142 % of control

## C[C@@H]1CCC[C@@H](NC(=O)N(CCCl)N=O)C1
T/C endpoint: median survival time, dose: 37.5 mg/kg/injection, schedule: Q01DX009 (ip), vehicle: Klucel (hydroxypropylcellulose) (HPC), higher T/C = longer survival
  T/C: 148 % of control [9 of 10 alive]

## Nc1ncnc2c1ccn2C1OC(CO)C(O)C1O (stereo unspecified)
T/C endpoint: mean tumor weight, dose: 2.5 mg/kg/injection, schedule: Q01DX011 (ip), vehicle: saline, higher T/C = larger tumour
  survivor count: 0 of 6
T/C endpoint: median survival time, dose: 4.0 mg/kg/injection, schedule: Q01DX011 (ip), vehicle: other, higher T/C = longer survival
  survivor count: 7 of 10
T/C endpoint: median survival time, dose: 8.0 mg/kg/injection, schedule: Q01DX011 (ip), vehicle: other, higher T/C = longer survival
  survivor count: 0 of 10
T/C endpoint: median survival time, dose: 16.0 mg/kg/injection, schedule: Q01DX011 (ip), vehicle: other, higher T/C = longer survival
  survivor count: 0 of 10

## CC(=O)C1=C(O)C2(C)c3c(O)c(C)c(O)c(C(C)=O)c3OC2(Sc2ccccc2)CC1=O (stereo unspecified)
T/C endpoint: median survival time, dose: 12.5 mg/kg/injection, schedule: Q01DX009 (ip), vehicle: gum acacia, higher T/C = longer survival
  T/C: 142 % of control

## CC(=O)Nc1ccc(Cl)c(Cl)c1
[1]
  T/C: 137 % of control
T/C endpoint: median survival time, dose: 200.0 mg/kg/injection, schedule: Q01DX009 (ip), vehicle: Klucel (hydroxypropylcellulose) (HPC), higher T/C = longer survival
  survivor count: 9 of 10

## O=C1N(Cl)C(=O)C(c2ccc(Cl)cc2)(c2ccc(Cl)cc2)N1Cl
[1]
  survivor count: 10 of 10

## O=P(N1CCOCC1)(N1CC1)N1CC1
T/C endpoint: median survival time, dose: 6.25 mg/kg/injection, schedule: Q01DX009 (ip), vehicle: saline, higher T/C = longer survival
  survivor count: 10 of 10
[2]
  T/C: 141 % of control
  survivor count: 8 of 10 and 10 of 10
T/C endpoint: median survival time, dose: 25.0 mg/kg/injection, schedule: Q01DX009 (ip), vehicle: saline, higher T/C = longer survival
  survivor count: 10 of 10
T/C endpoint: median survival time, dose: 50.0 mg/kg/injection, schedule: Q01DX009 (ip), vehicle: saline, higher T/C = longer survival
  survivor count: 3 of 10, 8 of 10, 10 of 10

## CCOCCCN
T/C endpoint: mean tumor weight, dose: 148.0 mg/kg/injection, schedule: Q01DX011 (ip), vehicle: other, higher T/C = larger tumour
  survivor count: 0 of 6
T/C endpoint: mean tumor weight, dose: 222.0 mg/kg/injection, schedule: Q01DX011 (ip), vehicle: other, higher T/C = larger tumour
  survivor count: 0 of 6
T/C endpoint: mean tumor weight, dose: 333.0 mg/kg/injection, schedule: Q01DX011 (ip), vehicle: other, higher T/C = larger tumour
  survivor count: 0 of 6
T/C endpoint: mean tumor weight, dose: 500.0 mg/kg/injection, schedule: Q01DX011 (ip), vehicle: other, higher T/C = larger tumour
  survivor count: 0 of 6

## Cn1cnc([N+](=O)[O-])c1Sc1nc(N)nc2c1ncn2C1OC(CO)C(O)C1O (stereo unspecified)
T/C endpoint: mean tumor weight, dose: 24.0 mg/kg/injection, schedule: Q01DX011 (ip), vehicle: other, higher T/C = larger tumour
  survivor count: 2 of 6
T/C endpoint: mean tumor weight, dose: 32.0 mg/kg/injection, schedule: Q01DX011 (ip), vehicle: other, higher T/C = larger tumour
  survivor count: 3 of 6
